Some peptides are written in HELM: one residue between dots, names in brackets for other building blocks, links after the first $.
Test: general procedure: Fmoc solid-phase peptide synthesis; 2'-Cl-TrtCl polystyrene resin (1.1 mmol/g); HCTU/DIPEA
Details: whole synthesis, scale of the general procedure 0.2 mmol

PEPTIDE1{P.G.L.D.T.[3AbOxzEt]}$PEPTIDE1,PEPTIDE1,1:R1-6:R2$$$V2.0
isolated yield: 21%

PEPTIDE1{P.G.L.D.T.[3AbOdzEt]}$PEPTIDE1,PEPTIDE1,1:R1-6:R2$$$V2.0
isolated yield: 27%

Source: PMC10498670 (2023)
